The values below come from paper PMC2614481.

The chains behind the UniProt entries cited, without tags or fusion partners.
UniProt Q9C0X6: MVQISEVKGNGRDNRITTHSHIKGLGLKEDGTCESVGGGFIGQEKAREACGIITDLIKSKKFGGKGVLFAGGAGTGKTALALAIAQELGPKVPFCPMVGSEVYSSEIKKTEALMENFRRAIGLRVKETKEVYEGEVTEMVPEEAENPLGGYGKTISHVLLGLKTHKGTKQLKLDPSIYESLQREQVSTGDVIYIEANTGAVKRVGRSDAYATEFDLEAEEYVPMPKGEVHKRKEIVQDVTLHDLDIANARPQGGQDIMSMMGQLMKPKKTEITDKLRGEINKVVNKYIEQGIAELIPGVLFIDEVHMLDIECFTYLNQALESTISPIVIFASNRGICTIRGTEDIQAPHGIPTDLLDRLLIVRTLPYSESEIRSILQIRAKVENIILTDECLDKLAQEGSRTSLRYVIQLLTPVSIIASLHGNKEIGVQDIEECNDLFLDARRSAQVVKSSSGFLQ

T1: IES6 (S. pombe) (S. pombe) (UniProt Q9UTE8)
T1 sequence: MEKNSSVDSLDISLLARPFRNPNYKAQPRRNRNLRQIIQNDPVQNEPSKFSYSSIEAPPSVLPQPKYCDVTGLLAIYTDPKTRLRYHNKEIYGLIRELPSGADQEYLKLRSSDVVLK

T2: Sp_Alp13p (S. pombe) (UniProt O13953)
T2 sequence: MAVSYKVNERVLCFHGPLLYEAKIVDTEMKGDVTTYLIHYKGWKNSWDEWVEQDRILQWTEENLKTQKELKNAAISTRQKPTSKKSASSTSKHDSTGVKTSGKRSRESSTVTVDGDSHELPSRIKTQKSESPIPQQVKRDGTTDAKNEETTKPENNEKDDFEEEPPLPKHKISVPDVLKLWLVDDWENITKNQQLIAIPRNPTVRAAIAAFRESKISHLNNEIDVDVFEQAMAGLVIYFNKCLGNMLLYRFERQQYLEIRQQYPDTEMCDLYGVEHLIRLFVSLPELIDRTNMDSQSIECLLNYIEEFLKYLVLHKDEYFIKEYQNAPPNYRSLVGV

T3: SWC2 (S. pombe) (S. pombe) (UniProt Q9P790)
T3 sequence: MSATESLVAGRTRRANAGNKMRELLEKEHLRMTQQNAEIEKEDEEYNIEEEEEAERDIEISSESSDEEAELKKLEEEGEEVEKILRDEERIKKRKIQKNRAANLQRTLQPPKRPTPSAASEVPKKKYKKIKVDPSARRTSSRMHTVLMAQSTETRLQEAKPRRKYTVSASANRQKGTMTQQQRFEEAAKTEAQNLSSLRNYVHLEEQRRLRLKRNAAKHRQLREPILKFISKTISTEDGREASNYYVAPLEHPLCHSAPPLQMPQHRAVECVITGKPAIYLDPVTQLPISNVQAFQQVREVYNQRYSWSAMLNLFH

T4: SWC4 (S. pombe) (S. pombe) (UniProt O14308)
T4 sequence: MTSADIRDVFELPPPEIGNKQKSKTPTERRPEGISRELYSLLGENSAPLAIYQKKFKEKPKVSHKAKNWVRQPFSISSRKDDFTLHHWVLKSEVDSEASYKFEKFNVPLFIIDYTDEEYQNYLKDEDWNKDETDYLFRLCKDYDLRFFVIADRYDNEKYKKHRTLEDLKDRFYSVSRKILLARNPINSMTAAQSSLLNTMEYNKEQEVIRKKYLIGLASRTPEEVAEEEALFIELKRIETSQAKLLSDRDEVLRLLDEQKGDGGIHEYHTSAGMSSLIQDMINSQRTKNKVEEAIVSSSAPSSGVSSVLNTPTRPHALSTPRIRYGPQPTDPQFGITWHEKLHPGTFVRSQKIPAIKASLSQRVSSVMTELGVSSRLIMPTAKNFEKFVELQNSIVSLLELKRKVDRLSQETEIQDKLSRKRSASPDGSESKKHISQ

T5: YAF9 (S. pombe) (S. pombe) (UniProt Q10319)
T5 sequence: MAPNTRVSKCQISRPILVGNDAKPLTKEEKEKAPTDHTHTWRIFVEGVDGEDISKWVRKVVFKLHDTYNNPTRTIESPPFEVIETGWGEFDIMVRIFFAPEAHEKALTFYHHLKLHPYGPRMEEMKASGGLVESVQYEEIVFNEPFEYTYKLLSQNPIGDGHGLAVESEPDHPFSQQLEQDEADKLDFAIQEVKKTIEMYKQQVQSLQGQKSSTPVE

B1: IEC5 (Ino Eighty Complex subunit 5, S. pombe) (protein, UniProt B8Y7Y5 1-144)
chain: MAAQKKQGERVLPARSTRKRRQLPDMLYYDERTDSYVTPQERSLSEANAQTRPAPNTINQAVDAKQSAREARVQELMKSKLYHLRKQQKQARHKRDQWAIDYLEWKKNEDEDVWNSDAEATGPAEHTSSFLDALRFSQQFMKAE
B2: ALP5 (S. pombe) (protein, UniProt Q9P7X7 1-433)
chain: MTSAFYGGDEVSAIVIDPGSKWTRIGFSGEDIPKCVLPSYCGEFSDGRRLFGEEYIYKSNPGMEIKNAIRNGWVENWDVTVDLWRYGLEQQLKTNPLEHPILITEPFDNPPENRVKTLETMFESLRCPATYLAKQETCAAFASGKGTACLVDIGAERSSVSAIYDGFVLQKGYQVQHFSGNAINDILAQTLRDKNFEVMPKYLVKSKNPVEIGQPANCELRPRDTTDSYHQFQVQRVYDEWKEECALISDVPFSSETTIAESEFEFPDGSRMMFGAERYQIPEHLFVPGSDEEMNEEPSKPIEQTENNEVSQQDSSVTNTSSRILGIPQLFQNCISECDVDIRASLLNNVIVCGGTSLMQGFSLRLQNELSKLYPGSRLKIHASGHVVERSYASWLGGSILSSLGTFHQLWISRQEYEEHGSDRLALIEKRCK
B3: ARP6 (S. pombe) (protein, UniProt O94241 1-401)
chain: MGLPPKTIVLDNGAYHIKAGFAGGKVVEIPNCLTRSKDGNRLFLGNELANCNDFTTLQFRRAHEKGYLVHWSTETAVWDLVMRNVGVMEPSMADYSLLLTQPVFTMPSIEHNTIQLVFEEFQFDAYLPCTPAELIPWDHGSFTMNQEDAYTGQHGECVLVIDSGYSFTHIIPVIDFSVQEQAVKRVDVGGKLLTNYLKEVISYRKYNMMEETYIVNEIKESVCYVSQNFKEDMEICHEKPRSKLEICYALPDYSTGKHGYIVRDINQKIEQQVLNLSNERFMIPELLFSPSDIEIREAGIPEAVMQSVTHFPENIQAMLLENVVTIGGNCKFPGFHKRLSSELRSLAPANWEVKVFEPSDPICFPWKKASHMPLEHWNANKITRSEYSEHGANIMTRKRRI
B4: BDF1 (S. pombe) (protein, UniProt Q9Y7N0 1-578)
chain: MSSESRENEVKAETKDEIANDGSPQLNGDNNIQSSDGHNDENEESLSRKRDSSGATVGDLKQEEKESMPKKEPEPTVKKIRGSGMPPPQQKYCLAIVRQLKRTKNSAPFKVPVDPIKQNIPDYPTIVKNPMDLGTIEKKLTSYEYSVPQEFIDDMNLMFSNCFLYNGTESPVGSMGKALQEVFERQLKQLPDAEQPAAAPVKKSKQKSASTAPPRTRRNSSVSSTSASVAASTAPKAASPAVLPEGKPRRRKNNSQMRFCSTVLKELYKRQYESFAFPFYQPVDPVACDCPDYFDVIKEPMDLSTIQSKLNKNEYSTLEEFESDILLMFNNCFTYNPPGTPVHVMGRQLENVFKEKWEARPKFDDATLVKQQEAETDALFDNGEEEEALMSEEEINGAKFAAVDKQISMLQDTLEAMKAKKMNRMRKPRRRDLTKEYGPITYAMQNELAERCNYLSAEQLSNVAEILREEMPWLRDTDEIEIDVGNMKPEVFHRIYRYVCKPDADSSEPASPVLMPTKPEKKKGRVLSETEQAEKIRRLQQQLDRFAGKTSPTSPESNNAANVSDSESDNESESSESA
B5: VPS71 (S. pombe) (protein, UniProt O59669 1-139)
chain: MFVTPIEHAVQKRKKQKQRSVVDPVTRERQLKRNLADLEKDNFSDIRFEIPKDLLQRRVLPISVRRILSSRKTFVNYLDETPNSRYNTCVAKPSYKPPRKFCNVCGYWGKYACQNCGTSYCSKGCEVIHSETRCMKVYA
B6: SWR1 (S. pombe) (protein, UniProt O13682 1-1288)
chain: MTYEESEKNKNGLSSYIKKEGSSDLKVRVRFREPKLLVTHSGHITEQPKYEHLEQYLDSYVSLEDGDHDPKEAKELVFREVQLRHRINEFRKKGYFTAEAPVELKKAPSSNNIPISYRDNLLSHVNGYARSMHNDRKVRASRSRRISGMILAHFKRLSGADEKKAKEEDKRIRLLAKRTAWEIRKKWKVIEREVRRRRAERAAEAQRVAGKEQLANILKHSTDLLEARIERANINISAQTSESAVDWNYLLKTSDDLLSVDELKLKYSNPDLIKNIEREEEAEETSDDEPLSSEDEENEDEDITEESNLRKRKVSDKTRVVNKHPPSLRRSRRFFAKKSYNHVSDLDGEVIVMKKEDITDGVSTKKDLNDGDQNEVPLHDTGSSSSLSLLYNEDVASKKKRRVNDDGLARKKSIAGISEQRKFDEPNGSPVLHANKIQVPFLFRGTLREYQQYGLEWLTALHDSNTNGILADEMGLGKTIQTIALLAHLACEKENWGPHLIIVPTSVMLNWEMEFKKFLPGFKILTYYGNPQERKEKRSGWYKPDTWHVCITSYQLVLQDHQPFRRKKWQYMILDEAHNIKNFRSQRWQSLLNFNAEHRLLLTGTPLQNNLVELWSLLYFLMPAGVTQNNSAFANLKDFQDWFSKPMDRLIEEGQDMNPEAMNTVAKLHRVLRPYLLRRLKTEVEKQMPAKYEHVVYCQLSKRQRFLYDDFINRARTREILASGNFMSIINCLMQLRKVCNHPNLHEERPIVTSFALRRSAIADLEIKDLLVRKRLLHEEPMTKLDLSTLRLIRTDSEAFDTFVSDELNSLCATNAYNRISTFLRMQIDEECKPCQFKKSNFKEHFQNKIYQEQLDKLNFQKYLNESKCSHSPIYGSNLIRLAEKLPKHSTSIDYTLYAKDDPLYLLNTTKALRSCILSTEERASNMKEIIQRFACITPKAVVVDLPELFCKTIPRDLLYEVSRKINPLHQASTRLAIAFPDKRLLQYDCGKLQVLDRLLKDLVSNGHRVLIFTQMTKVLDILEQFLNIHGHRYLRLDGATKIEQRQILTERFNNDDKIPVFILSTRSGGLGINLTGADTVIFYDSDWNPQLDAQAQDRSHRIGQTRDVHIYRLISEYTVESNMLRRANQKRMLDKIVIQGGEFTTEWFRKADVLDLFDLDDESLKKVKADSDSGSTKNEENWEVALAAAEDEEDVQAAQVARKESALEQTEFSETSTPQAMLTKDSTPLSSDSATPGFERDSTEEQSNTNDMDEDRSELEEDLDETVGHIDEYMISFLEQEGTSDEW
B7: SWC3 (S. pombe) (protein, UniProt Q10210 1-391)
chain: MSLNGTFSHNNGLPSGEREESETPGGSTSIISSSFLLQPRASDSRPDALEGKYDKNVLARALKKSRDSCLNGALFEKFLPEENYKLSGGTVFSHVRYIDTATLCVGPLRFEDTKFYFVHYSNSPIEPFAKPNISYVNPQWNELDYRPDSQKLSPGKEKNTLDLKHCLLPSPEYKAPPAKKPEDYEASPGEPVEPLITDASLQRLKSRANEDPTIFNILKRISKGLGTPEQCMLLHNELIGPSTFPLPKRAKKPPRKRITLSINQQDKDEFFDSLINNKKEVRRHFDIVMEFSDAPDTKWIFPRESVLSHVFNTDKKKLEALSLLFHVYRPTEDRNVIDVKTEIKIRDFTPTLRSAIELLTSGTHADRLLSEKRRRMSNLEPKYYMQFHEQT

These are yes or no findings as the source states them, for the method shown. Binding seen in cells or lysates may run through a third protein. A yes stands for co-enrichment or nearness to the bait. Other partners may have been found.

In the first experiment the target is T1, IES6 (S. pombe) (S. pombe). Briefly: affinity purification with mass spectrometry; TAP of baits TAP-tagged at their genes from S. pombe extracts; eluates on 6-18% gels, Coomassie, bands and slices identified by MALDI peptide mapping and LC-MS/MS; common background removed, A-index cut-off 1.75.
For the molecule B1, the binding result was “binds”.

For the molecule B2, the binding result is on record as “binds”.

A further experiment deals with T2, Sp_Alp13p (S. pombe). Described as above.
Turning to B2, the binding result is on record as “binds”.

The target of a further experiment is T3, SWC2 (S. pombe) (S. pombe). Described as above.
With B3, the binding entry is on record as “binds”.

Take B4: the binding result is given as “binds”.

On to B5, for which the binding entry is recorded as “binds”.

Consider B6, for which the binding result was “binds”.

As to B2, the binding entry is reported as “binds”.

As to B7, the binding result is “binds”.

In a further experiment the target is T4, SWC4 (S. pombe) (S. pombe). The experiment is described as above.
As for B3, the binding result was “binds”.

As for B4, the binding entry is given as “binds”.

For B5, the binding result is on record as “binds”.

As to B6, the binding entry is “binds”.

Take B2: the binding entry is “binds”.

For the molecule B7, the binding entry was “binds”.

A further experiment has as its target RVB1 (S. pombe) (S. pombe) (UniProt Q9C0X6). Described as above.
For B1, the binding result was “binds”.

Turning to B4, the binding result is on record as “binds”.

Take B5: the binding result was “binds”.

Regarding B6, the binding entry was “binds”.

In the case of B2, the binding result is on record as “binds”.

For B7, the binding result is recorded as “binds”.

The next experiment concerns the target T5, YAF9 (S. pombe) (S. pombe). Described as above.
In the case of B3, the binding entry is given as “binds”.

As for B4, the binding entry is given as “binds”.

For B5, the binding entry was “binds”.

For B6, the binding result is reported as “binds”.

As for B2, the binding result is “binds”.

Consider B7, for which the binding entry is on record as “binds”.
